{"source": "patent US7867750B2", "about": "“Method for anaerobic degradation of fuel oxygenates and similar compounds” (Rutgers, The State University of New Jersey, priority 2006, dated 2011)", "system": "MTBE-utilizing culture", "assay": "Effect of methoxylated aromatic compounds as co-substrates on MTBE utilization", "type": "cell-based", "settings": "MTBE as sole substrate", "note": "The amount applied is not stated for every result."}
{"molecule": "COC(C)(C)C", "note": "[MTBE, Methyl tert-butyl ether]", "values": [{"measurement": "incubation time after which MTBE utilization is observed", "value": 90, "unit": "days"}, {"measurement": "time for MTBE concentration to decrease to below detection limit", "value": "≤ 150", "unit": "days"}]}
